Chains of the proteins cited; added tags and fusions are not shown. A line that says so, or that is headed by a name, gives the form on record, which may keep a tag or linker.
CENP-T/CENP-Wmut complex CENP-W R19A,K23A,R24A,R34A,R87A (Homo sapiens), one chain, as listed by the source R19A K23A R24A R34A R87A, chain 2 of 2: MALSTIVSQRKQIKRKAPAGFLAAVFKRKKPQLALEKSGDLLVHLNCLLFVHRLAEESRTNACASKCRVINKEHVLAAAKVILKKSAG

In patent publication US20130288364:

System: CENP-T/CENP-Wmut complex CENP-W R19A,K23A,R24A,R34A,R87A (Homo sapiens)
Test: EMSA
Details: reduced versus wild-type complex; residual binding attributed to CENP-T; purified recombinant protein; protein details: 6xHis-CENP-T, untagged CENP-W; label: biotin

## CCTTTGAGGCCTTCGTTGGA (double strand) [alpha-satellite 20 bp probe (bp 21-40)]
  binding result: binds more weakly

A weaker result is weaker than the reference pair of the same experiment.
